Our source for the binding values is paper PMC6818788.

This test deals with T1, Flag-IRF7 (mouse) (UniProt P70434).
T1 sequence: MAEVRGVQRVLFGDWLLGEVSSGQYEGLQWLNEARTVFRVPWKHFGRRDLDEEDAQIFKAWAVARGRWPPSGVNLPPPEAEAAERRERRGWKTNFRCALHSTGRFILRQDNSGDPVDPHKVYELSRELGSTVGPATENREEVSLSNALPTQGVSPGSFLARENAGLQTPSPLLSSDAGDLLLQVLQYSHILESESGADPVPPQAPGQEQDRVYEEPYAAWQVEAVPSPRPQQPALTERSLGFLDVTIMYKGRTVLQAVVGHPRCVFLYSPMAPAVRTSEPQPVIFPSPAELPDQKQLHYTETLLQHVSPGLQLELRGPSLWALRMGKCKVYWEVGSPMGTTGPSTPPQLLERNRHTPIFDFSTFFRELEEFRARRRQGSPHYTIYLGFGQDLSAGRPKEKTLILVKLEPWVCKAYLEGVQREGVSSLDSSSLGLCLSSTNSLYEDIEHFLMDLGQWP
Nature of the test: co-IP; HEK293T cells co-transfected with Flag-IRF7 and HA-tagged p200 family protein or mutant; lysate immunoprecipitated with anti-Flag, immunoblot with anti-HA. (In western blotting, separated proteins are transferred to a membrane and probed.)

No constants are given. Whether binding was seen depends on the method and setting. Binding seen in cells or lysates may run through a third protein. A result given as binding can be weak or reduced; the word gives no strength. Sequences can lack the tags named with a protein.

Take HA-IFI16β (human): the binding result is “binds”.

With HA-IFI205 (mouse), the binding result is reported as “binds”.
